In patent US20250129027A1 (APOGEE PHARMACEUTICALS, INC., priority 2023, published 2025) one finds IC50 data, which are given here for one compound.

The chains behind the UniProt entries cited, without tags or fusion partners.
UniProt O00519, whole entry: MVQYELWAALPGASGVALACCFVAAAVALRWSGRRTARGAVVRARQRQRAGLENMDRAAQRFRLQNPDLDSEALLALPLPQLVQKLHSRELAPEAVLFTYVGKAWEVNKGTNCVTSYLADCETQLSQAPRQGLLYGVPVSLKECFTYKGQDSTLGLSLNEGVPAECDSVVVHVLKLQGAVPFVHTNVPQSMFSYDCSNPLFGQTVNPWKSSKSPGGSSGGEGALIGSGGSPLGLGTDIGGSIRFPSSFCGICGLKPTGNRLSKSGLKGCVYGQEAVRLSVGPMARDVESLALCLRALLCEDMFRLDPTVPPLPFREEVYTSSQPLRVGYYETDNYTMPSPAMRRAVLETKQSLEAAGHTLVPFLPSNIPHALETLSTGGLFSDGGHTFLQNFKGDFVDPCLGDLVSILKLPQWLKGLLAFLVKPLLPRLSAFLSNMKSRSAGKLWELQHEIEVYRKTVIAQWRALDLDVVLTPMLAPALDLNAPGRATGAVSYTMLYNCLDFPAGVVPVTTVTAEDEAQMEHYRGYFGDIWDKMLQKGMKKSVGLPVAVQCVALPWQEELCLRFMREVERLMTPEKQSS
UniProt Q99685, whole entry: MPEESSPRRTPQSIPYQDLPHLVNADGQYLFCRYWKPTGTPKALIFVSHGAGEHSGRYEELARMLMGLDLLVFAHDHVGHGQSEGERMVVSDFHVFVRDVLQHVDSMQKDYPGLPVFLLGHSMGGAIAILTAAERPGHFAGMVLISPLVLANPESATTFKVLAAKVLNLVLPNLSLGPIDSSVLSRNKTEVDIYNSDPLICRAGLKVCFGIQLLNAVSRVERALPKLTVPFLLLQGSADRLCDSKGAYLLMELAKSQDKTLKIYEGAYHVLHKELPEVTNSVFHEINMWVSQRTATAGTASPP

In one assay the target is human recombinant FAAH (Homo sapiens (Human), UniProt O00519). Description: In vitro inhibition of FAAH activity (fluorescent inhibitor screening kit, AMC arachidonoyl amide). It counts as biochemical.
In another assay the target is human recombinant MAGL (Homo sapiens (Human), UniProt Q99685). Description: In vitro inhibition of MAGL activity (inhibitor screening kit, 4-nitrophenylacetate). The following applies: read-out: Inhibition on MAGL activity (IC50).

Read-outs that look alike come from different tables or passages of the source. The match of structure and compound is tentative. Where only a bound is given, the exact number is not on record here.

Usually IC50 stands for the concentration that inhibits the measured activity by half. As for `COc1ccc(OC(=O)NC2CCCCCCC2)cc1-c1cncc(-c2nnco2)c1`, the IC50 on human recombinant FAAH (FAAH, values as listed in Table 5) is 0.11 µM; at human recombinant FAAH (read-out: Inhibition on FAAH activity (IC50), human recombinant FAAH), 0.111 µM; at human recombinant MAGL, above 10 µM.
